Measured values: PubChem BioAssay AID540276 (National Center for Advancing Translational Sciences (NCATS), 2011)
Values joined by “and” are separate entries in the source; they are usually repeats but may differ in a detail not shown here. Identical values can stand only once. Among all 300,000 compounds or so, about 5,400 (1.8%) were called active. The inconclusive results got no clear call from the source; some entries with a clear call stand among them for comparison. Calls follow the shape of the full dose curve; tested in HEK293 cells. Potencies of inconclusive entries are doubtful fits and often do not repeat.

Assay: qHTS for inhibitors of binding or entry into cells for Marburg Virus
Conditions: Marburg virus pseudotyped entry inhibition, cell reporter; series mostly up to 37.8 µM
Potency is read from the fitted curve at half-maximal effect.

Q: Which Potency does the source give for `O=c1[nH]c2ccc(NCc3ccc(-c4ccc(Br)cc4)o3)cc2[nH]1` here?
A: inactive

Q: For `O=C(Nc1nc(-c2ccccn2)cs1)c1ccc([N+](=O)[O-])o1`, which Potency is on record?
A: inconclusive: 10 µM [inhibitor, partial curve, poor fit]

Q: For `COc1cc(CC(=O)Nc2ccc3c(c2)CCC3)cc(OC)c1OC`, which Potency is on record?
A: inconclusive: 25.1 µM [inhibitor, single point]

Q: For `O=C(NCCCl)NNc1c(Cl)cc(Cl)cc1Cl`, which Potency is on record?
A: inconclusive: 5.62 µM [inhibitor, single point]

Q: With `CS(=O)(=O)Nc1ccc(S(=O)(=O)NC2CCCCC2)cc1` as the molecule, how does the Potency read?
A: inconclusive: 11.2 µM [inhibitor, partial curve, poor fit]

Q: Which Potency does the source give for `COc1ccccc1N(CC(=O)Nc1ccc(Br)cc1F)S(=O)(=O)c1cccs1` here?
A: inconclusive: 20 µM [inhibitor, partial curve, poor fit]

Q: For `CN(C)C(/C=C/Nc1ccc(F)cc1F)=C(C#N)C#N`, which Potency is on record?
A: inactive

Q: For `Cc1ccc(N2C(=N)/C(=C3/Nc4ccccc4S3)C(c3ccccc3)C2=O)cc1` (centres undefined), which Potency is on record?
A: inactive

Q: Which Potency does the source give for `O=C(c1cccc(NS(=O)(=O)c2ccc(F)c(F)c2)c1)N1CCCCC1` here?
A: inactive

Q: For `O=C(c1cc2sccc2n1Cc1ccc(F)cc1)N1CCN(c2nc3ccccc3s2)CC1`, which Potency is on record?
A: active: 3.55 µM

Q: With `CCN(CC)CCCN=Cc1c(O)n(Cc2ccccc2)c(=O)c2ccccc12` as the molecule, how does the Potency read?
A: inconclusive: 35.5 µM [inhibitor, single point]

Q: With `CCn1nc(C(=O)Nc2ccc(C)c(C)c2)c(Cl)c1Cl` as the molecule, how does the Potency read?
A: inactive

Q: With `Cc1ccccc1-c1nnn(CC(=O)Nc2sc3c(c2C#N)CCC(C(C)(C)C)C3)n1` (centres undefined) as the molecule, how does the Potency read?
A: inactive

Q: For `O=C(CCc1nc2ccccc2c(=O)[nH]1)NCc1cccc(Cl)c1`, which Potency is on record?
A: inactive

Q: Which Potency does the source give for `O=C1Nc2ccc([N+](=O)[O-])cc2C1(O)N1CCCCC1` (centres undefined) here?
A: inactive

Q: For `CCCc1ccc(-c2cc(C(=O)Nc3ccc([N+](=O)[O-])cn3)c3ccccc3n2)cc1`, which Potency is on record?
A: inactive

Q: Which Potency does the source give for `O=C(NC1(C(F)(F)F)NC(=O)N(Cc2ccccc2)C1=O)c1cccnc1` (centres undefined) here?
A: inactive

Q: For `CC1CC(C)CN(c2ccc(C(=O)NCc3ccc4c(c3)OCO4)cc2[N+](=O)[O-])C1` (centres undefined), which Potency is on record?
A: inconclusive: 3.66 µM [inhibitor, partial curve, poor fit]

Q: With `O=C(NCCCN1CCc2ccccc2C1)C1CCN(S(=O)(=O)N2CCCC2)CC1` as the molecule, how does the Potency read?
A: inconclusive: 8.2 µM [inhibitor, partial curve]

Q: With `CCOC(=O)CN1C(=O)S/C(=C/c2ccc(OCc3ccc(C(=O)O)cc3)cc2)C1=O` as the molecule, how does the Potency read?
A: inactive

Q: Which Potency does the source give for `O=C(COc1ccc([N+](=O)[O-])cc1)Nc1nc2c(s1)CCCC2` here?
A: inactive

Q: With `Cc1ccc(OCC(=O)Nc2cccc(S(=O)(=O)N3CCCCCC3)c2)cc1C` as the molecule, how does the Potency read?
A: inactive

Q: For `O=c1[nH]c2ccc(S(=O)(=O)NCc3ccccn3)cc2s1`, which Potency is on record?
A: inconclusive: 11.6 µM [inhibitor, partial curve, poor fit]

Q: With `COc1cc(/C=C2/C(=O)NN(c3cccc(C)c3)C2=O)ccc1OC(=O)c1ccco1` as the molecule, how does the Potency read?
A: inactive

Q: Which Potency does the source give for `Cc1ccccc1C(=O)N1CCC(C(=O)Nc2ccc(S(=O)(=O)N3CCCCC3)cc2)CC1` here?
A: inactive

Q: Which Potency does the source give for `Cc1cc(S(=O)(=O)Nc2ccc(C(=O)NCc3ccncc3)cc2)ccc1F` here?
A: inactive

Q: With `CCc1ccc(C2NC(=S)NC3=C2C(=O)CC(C)(C)C3)cc1` (centres undefined) as the molecule, how does the Potency read?
A: inconclusive: 1.41 µM [activator, full curve, poor fit]

Q: With `CCOc1cc(C2c3c(n[nH]c3C)C(=O)N2c2ccc(Br)cc2)ccc1O` (centres undefined) as the molecule, how does the Potency read?
A: inactive

Q: For `N=C1/C(=C/c2coc3ccccc3c2=O)C(=O)N=C2SC(c3ccco3)=NN12`, which Potency is on record?
A: inactive

Q: Which Potency does the source give for `O=C1CCc2cc(OCCCCc3nnnn3C3CCCCC3)ccc2N1` here?
A: inconclusive: 18.4 µM [inhibitor, single point] and inconclusive: 7.08 µM [inhibitor, full curve, poor fit]

Q: For `COc1ccc(-c2[nH]c(-c3ccccc3)nc2SCC(=O)Nc2nccs2)cc1`, which Potency is on record?
A: inconclusive: 20.6 µM [inhibitor, single point]

Q: For `COc1cc(NC(=O)c2cc([N+](=O)[O-])ccc2NC(=O)CN2CCN(c3ccccn3)CC2)cc(OC)c1`, which Potency is on record?
A: active: 8.91 µM

Q: Which Potency does the source give for `CN(CC(=O)Nc1ccccc1Br)C(=O)c1ccccc1-c1nc2ccccc2s1` here?
A: inactive

Q: Which Potency does the source give for `CCOCCCNC(=O)c1cc(Sc2ccc(C)cc2)nc2ccccc12` here?
A: inconclusive: 3.98 µM [inhibitor, partial curve, poor fit]

Q: For `O=C(Nc1ccc(C(=O)N2CCOCC2)cc1)c1cccc(Br)c1`, which Potency is on record?
A: inconclusive: 7.08 µM [activator, partial curve]

Q: With `CCOC(=O)CNC(=O)CSc1ncnc2c1cnn2-c1ccc(C)cc1` as the molecule, how does the Potency read?
A: inconclusive: 2.82 µM [inhibitor, partial curve]

Q: With `Cc1nc2nc(-c3ccco3)nn2c(C)c1Cl` as the molecule, how does the Potency read?
A: inconclusive: 11.2 µM [activator, partial curve]

Q: With `COC(=O)Nc1ccc(S(=O)(=O)N2CCC(C(=O)N3CCCCC3C)CC2)cc1` (centres undefined) as the molecule, how does the Potency read?
A: inconclusive: 35.5 µM [inhibitor, single point]

Q: For `CCOC(=O)c1cccc(NC(=O)c2cc(C)nn2-c2ccccc2)c1`, which Potency is on record?
A: inconclusive: 0.708 µM [inhibitor, partial curve, poor fit]

Q: For `Clc1ccc(CSc2ncnc3c2ncn3C2CCCCO2)cc1` (centres undefined), which Potency is on record?
A: inconclusive: 1.41 µM [inhibitor, partial curve, poor fit]

Q: Which Potency does the source give for `CCOC(=O)/C=C/C(=O)Nc1ccccc1-c1ccccc1NC(=O)/C=C/C(=O)OCC` here?
A: inconclusive: 7.08 µM [inhibitor, partial curve, poor fit]

Q: With `CC(OC(=O)CNC(=O)c1ccc(Cl)c(Cl)c1)C(=O)N1CCOCC1` (centres undefined) as the molecule, how does the Potency read?
A: inactive

Q: Which Potency does the source give for `CS/C(=N\NC(N)=O)c1ccccc1` here?
A: inconclusive: 0.316 µM [activator, single point]

Q: With `Clc1ccc(-c2cn3cc(Br)ccc3n2)cc1Cl` as the molecule, how does the Potency read?
A: inconclusive: 7.08 µM [inhibitor, partial curve, poor fit]

Q: Which Potency does the source give for `CCCCCn1c(=O)c(C(=O)NCc2ccccn2)c(O)c2ccccc21` here?
A: inconclusive: 35.5 µM [inhibitor, single point]

Q: Which Potency does the source give for `Cc1ccccc1/C=N/Nc1nc2ccccc2c(=O)n1O` here?
A: inconclusive: 1.78 µM [activator, partial curve, poor fit]

Q: With `Cc1cc(C)nc(SCC(=O)N/N=C/c2cccn2-c2ccc(O)cc2)n1` as the molecule, how does the Potency read?
A: inactive

Q: With `COc1ccccc1CN=C1Nc2ccccc2CS1` as the molecule, how does the Potency read?
A: inconclusive: 3.16 µM [activator, full curve, poor fit]

Q: With `CC1CCN(S(=O)(=O)c2ccc(NC(=O)CN3CCOCC3)cc2)CC1` as the molecule, how does the Potency read?
A: inconclusive: 32.6 µM [inhibitor, single point]

Q: With `Cc1ccc(C)c2[nH]c(=O)c(C(c3nnnn3Cc3ccco3)N3CCc4ccccc4C3)cc12` (centres undefined) as the molecule, how does the Potency read?
A: inconclusive: 22.4 µM [inhibitor, single point]

Q: Which Potency does the source give for `O=C(Nc1ccc(Cl)cn1)c1ccc2c(c1)OCCO2` here?
A: inconclusive: 1.78 µM [inhibitor, partial curve, poor fit]

Q: With `COc1cc(C(=O)Nc2ccccc2C(=O)NCc2cccnc2)cc(OC)c1OC` as the molecule, how does the Potency read?
A: inconclusive: 3.16 µM [inhibitor, full curve, poor fit]

Q: Which Potency does the source give for `COc1ccccc1C(=O)Nc1cccc(NC(=O)c2ccccc2C)c1` here?
A: inconclusive: 8.91 µM [inhibitor, partial curve, poor fit]

Q: With `CCN(CC(=O)NC(C)(C)C)Cc1nc2c(Br)cc(Br)cc2c(=O)[nH]1` as the molecule, how does the Potency read?
A: inconclusive: 10 µM [inhibitor, partial curve, poor fit]

Q: For `CCOc1cc(/C=C2\C(=O)N(Cc3ccc(C)cc3)C(C)=C2C(=O)OC)ccc1O`, which Potency is on record?
A: inactive

Q: Which Potency does the source give for `CC(=O)c1ccc(OC(=O)C2CSC3(C)CCC(=O)N23)cc1` (centres undefined) here?
A: inconclusive: 35.5 µM [inhibitor, single point]

Q: With `CCOc1cc(/C=C2\C(=O)N(Cc3ccco3)C(C)=C2C(=O)OC)ccc1O` as the molecule, how does the Potency read?
A: inconclusive: 8.91 µM [inhibitor, partial curve, poor fit]

Q: Which Potency does the source give for `COCc1nc2oc3ccc(C)cc3c(=O)c2cc1C(=O)OC` here?
A: inconclusive: 6.31 µM [activator, full curve, poor fit]

Q: With `COC(=O)N/N=C/c1c(C)nn(-c2cccc(Cl)c2)c1Cl` as the molecule, how does the Potency read?
A: inactive

Q: With `COc1cc(SC)ccc1C(=O)Nc1cc(C)c(OCC(=O)N2CCOCC2)c(C)c1` as the molecule, how does the Potency read?
A: inconclusive: 28.2 µM [inhibitor, single point]

Q: Which Potency does the source give for `Cc1ccc(CNC(=O)CN2C(=O)CSc3ccc(S(=O)(=O)N4CCC(C)CC4)cc32)cc1` here?
A: inconclusive: 10 µM [inhibitor, partial curve, poor fit]

Q: Which Potency does the source give for `CS(=O)(=O)c1ccc(Cl)c(NC(=O)COC(=O)CCN=C2NS(=O)(=O)c3ccccc32)c1` here?
A: inactive

Q: With `Cc1occc1C(=O)NC(C)C1CCCO1` (centres undefined) as the molecule, how does the Potency read?
A: inactive

Q: For `O=C(c1cccc(Oc2c(Cl)cccc2[N+](=O)[O-])c1)N1CCCCC1`, which Potency is on record?
A: inconclusive: 10 µM [inhibitor, partial curve, poor fit]

Q: Which Potency does the source give for `COC(=O)c1ccc2nc(NC(=O)C(C)(C)C)sc2c1` here?
A: inconclusive: 0.562 µM [inhibitor, full curve, poor fit]

Q: For `O=C(Cn1c(=O)nc(-c2ccccc2)c2cc(Cl)ccc21)Nc1ccc(F)c(Cl)c1`, which Potency is on record?
A: inactive

Q: Which Potency does the source give for `COc1ccc(C2(C(=O)NCc3ccccc3Cl)CCOCC2)cc1OC` here?
A: inconclusive: 4.11 µM [activator, full curve, poor fit]

Q: For `Nc1nc(SCCO)[nH]c(=O)c1NC(=O)c1ccc(Br)o1`, which Potency is on record?
A: inactive

Q: For `O=C(CSc1nc2ccccc2o1)c1ccccc1`, which Potency is on record?
A: inconclusive: 35.5 µM [activator, partial curve, poor fit]
